In PMC5147024, “Combined Whole-Cell High-Throughput Functional Screening for Identification of New Nicotinamidases/Pyrazinamidases in Metagenomic/Polygenomic Libraries” (Frontiers in Microbiology, 2016):

Tested on: T1, PolyNic (polygenomic nicotinamidase)
T1 construct: 588 bp PCR product in pET-46 Ek/LIC, expressed in E. coli Rosetta 2 (DE3); dimer
Experiment: steady-state kinetics by HPLC (Km)
Type: biochemical

SMILES: NC(=O)c1cccnc1 [NAM, Nicotinamide]
- Km: 49 ± 2 µM

SMILES: NC(=O)c1cnccn1 [PZA, Pyrazinamide]
- Km: 103 ± 10 µM

SMILES: Cc1cncc(C(N)=O)c1 [5-methyl-NAM, 5-methylnicotinamide]
- Km: 435 ± 15 µM

SMILES: COC(=O)c1cccnc1 [Methylnicotinate]
- Km: 355 ± 30 µM

SMILES: CCOC(=O)c1cccnc1 [Ethylnicotinate]
- Km: 1090 ± 105 µM
